The odorant receptor screen of Mainland et al. (2015)
“And” between values parts separate entries of the source, which are not always exact repeats. Identical values can stand only once. Some of the results follow. Each value is one well over the wells without odorant, computed here; the data are noisy.

Assays:
Assay in all cases: odorant receptor activation (CRE luciferase / Renilla) (fold of no-odor wells); higher = more activation
Conditions in all cases: 100 µM
OR13C3 G2C clone 1339 = tested on: OR13C3 G2C clone 1339
OR13C3 clone 1390 = tested on: OR13C3 clone 1390
OR13C4 clone 1094 = tested on: OR13C4 clone 1094
[1] = tested on: OR13C5 S18F/L69M/P79S/L86V/N128S/M258T clone 1477
OR13C7 Indel clone 1100 = tested on: OR13C7 Indel clone 1100
OR13C8 clone 1095 = tested on: OR13C8 clone 1095
OR13C9 F197L clone 1096 = tested on: OR13C9 F197L clone 1096
OR13D1 clone 1338 = tested on: OR13D1 clone 1338
OR13D1 clone 1484 = tested on: OR13D1 clone 1484
[2] = tested on: OR13F1 F18S/M101V/V134I/I270T clone 1097
OR13G1 I132V clone 1036 = tested on: OR13G1 I132V clone 1036
OR13H1 clone 1497 = tested on: OR13H1 clone 1497
OR13J1 H133R clone 1098 = tested on: OR13J1 H133R clone 1098
OR14A16 Indel clone 1030 = tested on: OR14A16 Indel clone 1030
OR14A2 clone 1042 = tested on: OR14A2 clone 1042
[3] = tested on: OR14C36 G225R/D231Y clone 1028
[4] = tested on: OR14I1 V36A/D50N/S170N clone 1479
OR14J1 clone 1318 = tested on: OR14J1 clone 1318
OR14J1 clone 1391 = tested on: OR14J1 clone 1391
OR14K1 clone 1043 = tested on: OR14K1 clone 1043

SMILES	odorant receptor activation (OR13C3 G2C clone 1339)	odorant receptor activation (OR13C3 clone 1390)	odorant receptor activation (OR13C4 clone 1094)	odorant receptor activation [1]	odorant receptor activation (OR13C7 Indel clone 1100)	odorant receptor activation (OR13C8 clone 1095)	odorant receptor activation (OR13C9 F197L clone 1096)	odorant receptor activation (OR13D1 clone 1338)	odorant receptor activation (OR13D1 clone 1484)	odorant receptor activation [2]	odorant receptor activation (OR13G1 I132V clone 1036)	odorant receptor activation (OR13H1 clone 1497)	odorant receptor activation (OR13J1 H133R clone 1098)	odorant receptor activation (OR14A16 Indel clone 1030)	odorant receptor activation (OR14A2 clone 1042)	odorant receptor activation [3]	odorant receptor activation [4]	odorant receptor activation (OR14J1 clone 1318)	odorant receptor activation (OR14J1 clone 1391)	odorant receptor activation (OR14K1 clone 1043)
CCCCCCOC(=O)CCC [hexyl butyrate]	1.24 and 0.827	0.817	1.2	0.93 and 0.903	0.453	1.33	0.845	1.9 and 0.64	1.19 and 1	1.8	0.559	0.781 and 0.915	0.525	1.1	1.44	0.54	0.904 and 0.832	1.17 and 0.924	0.905	1.06
CC(C)C=O [isobutyraldehyde]	1.25 and 1.01	0.704	2.75	1.01 and 0.937	1.14	2.04	2.36	1.52 and 0.629	1.18 and 1.21	1.65	0.83	0.979 and 1.03	0.759	1.19	2.04	0.992	1.04 and 1.08	1.92 and 0.833	0.76	1.83
CC/C=C\CCO [cis-3-hexen-1-ol]	1.02	0.223	1.01	0.766	0.954	0.81	0.897	0.964	0.959	0.856	0.894	0.898	0.842	0.88	1.14	0.784	1.04	0.944	0.133	0.877
CC(C)=CCCC(C)=CC=O [citral]	1.22	0.222	1.09	0.925	1.12	0.907	1.08	1.17	1.29	1.29	1.22	0.892	0.663	0.927	1.12	0.996	1.09	0.875	0.182	0.93
CC(=O)c1ccccc1 [acetophenone]	1.43	1.06	1.03	0.792 and 0.76	0.871	1.26	0.87	0.837	1.2 and 0.625	1.16	0.401	0.813 and 0.766	0.665	0.721	2.16	0.531	0.848 and 0.638	1.72	0.891	0.669
CCCCCCCC=O [octyl aldehyde]	0.983	0.621	1.09	1.01	1.45	1.15	1.26	1.21	0.887	1.17	1.12	1.08	1.06	1.33	1.08	1.11	0.839	0.949	0.77	0.98
CC1=CCC(C(C)(C)O)CC1 (stereo not given) [terpineol]	0.88	0.898	1.05	0.812	0.911	1.32	1.09	0.841	0.695	1.17	1.12	0.756	1.57	1.17	1.1	0.844	0.689	0.832	1.21	0.967
O=CCc1ccccc1 [phenyl acetaldehyde]	1.11	1.27	1.35	1.1	1.05	1.36	1.23	1.12	0.978	1.48	1.89	1.37	2.08	1.26	1.15	0.992	1.08	1.12	1.64	1.25
CC1CCC(C(C)C)C(O)C1 (single isomer, unassigned; (-)) [(-)-menthol]	0.722	0.684	18.1	3.72	10.6	2.69	30.5	0.805	3.04	1.82	2.47	3.67	3.23	3.37	2.95	3.29	2.31	0.98	0.707	3.07
C=C(C)C1CC=C(C)C(=O)C1 (stereo not given) [r-carvone]	0.786	0.984	0.956	0.991	0.714	0.848	1	0.864	0.837	1.11	1.5	0.851	1.05	1.04	0.913	0.817	0.718	0.783	1.07	0.897
O=C1CCCCCCCCCCCCCCO1 [pentadecalactone]	0.742	1	1.1	0.78	0.678	1.14	0.725	0.857	0.781	0.776	1.32	0.816	1.22	0.933	0.944	0.799	0.943	0.804	1.47	0.783
C=CCc1ccc(OC(C)=O)c(OC)c1 [eugenol acetate]	1.91	1.6	1.37	1.65	1.49	1.64	1.74	1.55	2.05	1.69	1.7	1.65	1.95	1.88	1.61	1.86	1.51	1.86	1.65	1.63
CC12CCC(CC1)C(C)(C)O2 [cineole]	0.977	0.208	0.871	0.684	1.04	0.981	0.882	0.986	0.871	0.853	0.873	0.834	0.664	0.802	0.857	0.822	0.996	0.901	0.116	0.704
O=C1CCCCCCCCCCCC(=O)OCCO1 [ethylene brassylate]	1.67	1.74	1.22	1.25	1.15	1.24	1.18	1.25	1.21	1.13	1.8	1.02	1.42	1.76	1.74	2.04	1.02	1.62	1.99	1.83
CCCCCCCCCCC=O [undecanal]	0.654	0.894	0.971	1.18	0.875	1.16	0.95	0.88	0.969	1.33	1.22	1.19	1.27	1.22	0.92	0.849	0.813	0.792	1.3	1.03
C=CCc1ccc(OC)c(OC)c1 [eugenol methyl ether]	1.7	1.44	1.17	1.17	1.45	1.4	1.43	1.4	1.93	1.22	1.73	1.36	1.68	1.72	1.48	1.67	1.34	1.83	1.62	1.69
CC1CCC(C(C)C)C(O)C1 (single isomer, unassigned; (+)) [(+)-menthol]	0.959	0.692	21.4	1.25	11.3	3.17	25.2	0.989	0.954	2.45	3.71	1.32	2.96	3.17	3.61	3.73	1.08	1.14	1.16	3.23
CCCCCCCCOC(C)=O [octyl acetate]	1.1	0.717	0.874	1.06	1.12	1.2	1.31	1.4	0.962	1.27	0.996	0.947	1.15	1.07	0.994	1.5	0.848	1.01	0.822	0.875
COc1ccccc1O [guaiacol]	0.927 and 0.87	0.801	1.7	0.889 and 0.927	0.62	1.76	1.4	1.3 and 0.797	1.38 and 1.36	2.14	1.13	0.915 and 1	0.579	1.53	2.94	1.68	0.939 and 1.09	0.791 and 0.943	0.86	2.17
COc1cc(C=O)ccc1O [vanillin]	0.933	0.89	0.88	1.1	0.72	1.02	0.84	1.07	1.06	1.01	1.16	0.819	1.12	1.11	0.922	0.835	0.873	1.16	1.07	1.08
CC(=O)OC1CC2CCC1(C)C2(C)C (stereo not given) [isobornyl acetate]	1.33 and 0.85	0.721	0.912	0.809 and 1.26	0.877	1.9	1	1.6 and 0.642	1.04 and 1.18	0.992	1.01	1.02 and 1.12	0.662	1.05	0.902	0.853	0.974 and 1.14	1.61 and 0.799	0.929	0.995
CC=Cc1ccc(O)c(OC)c1 [isoeugenol]	1.61	1.41	1.12	0.888 and 1.98	1.06	6.25	2.2	3.19 and 1.32	1.03 and 2.27	2.47	0.768	1.04 and 2.04	0.806	1.94	1.02	0.792	0.764 and 1.38	2.02 and 1.68	1.52	1.23
CC1=NC(C)SC1C (stereo not given)	1.02	0.996	0.612	0.903 and 0.893	0.582	1.43	1.41	1.03	1 and 1.26	0.564	0.607	0.964 and 1	1.16	0.559	1.04	1.27	1.05 and 0.78	0.743	1.12	0.862
CC12C=CCC1C1CCC3=CC(=O)CCC3(C)C1CC2 (stereo not given) [androstadienone]	1.12 and 1.05	0.877	2.1	0.905 and 1.36	0.642	1.64	3.41	1.52 and 0.792	1.12 and 1.27	3.95	1.1	0.997 and 1.06	0.916	1.96	1.35	1.27	0.932 and 0.993	0.724 and 1.08	0.751	3.25
CCCCCC(=O)O [caproic acid]	1.06	0.19	1.08	0.809	1.19	0.833	1.17	0.708	1.01	1.12	1.01	0.892	0.764	0.662	0.946	0.753	0.905	0.823	0.136	0.864
CCCC(=O)O [butyric acid]	1.05	0.22	1.06	0.794	1.27	1.09	1.3	0.774	1.05	1.28	1.22	1.21	0.971	1.01	1.2	0.803	0.942	0.92	0.169	1.12
